# The campaign covered roughly 360,000 compounds. About 7,500 (2.1%) were called active. Inconclusive means that the source gave no clear call. Such entries were picked first, then a sample of the others. The call rests on the fitted dose curve; in most records, active means well fitted inhibition curve with a large enough effect; inconclusive means small, poorly fitted or top-dose-only effect, or effect the other way; inactive means flat fitted curve, though single readings scatter. Potencies of inconclusive entries are doubtful fits and often do not repeat.
# Assay: Nrf2 qHTS screen for inhibitors; further: nearly all actives have a fitted effect of over 60% in size
# Settings: A549 ARE-Fluc reporter, luciferase luminescence, 18-24 h; activity change, negative = inhibition: at 46 µM (top of the series)
# Method in brief: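 A549 ARE_Fluc cells (5000/well, 5% FBS OPTI-MEM) pre-incubated 2 h, then treated with compounds 18-24 h at 37C/5% CO2 in concentration-response. CellTiter-Fluor viability read first; BugLite luciferase luminescence after 15 min at room temperature gives Nrf2 activity.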
# On the % scale 0 is the no-effect control and ±100 the full control effect; potency means the concentration at half of the fitted maximal effect.
Structure (SMILES),"activity change, negative = inhibition",Potency
Cc1ccccc1NC(=O)NCCN1CC1,inactive: 23.1%,–
O=C(C[n+]1ccn(CCCNP2(=O)C=C(c3ccccc3)OC(c3ccccc3)=C2)c1)c1ccccc1,inactive: -12.8%,–
C[C@@H]1O[C@@H](O[C@H]2C[C@@H](O)[C@]3(CO)[C@H]4[C@H](O)C[C@]5(C)[C@@H](C6=CC(=O)OC6)CC[C@]5(O)[C@@H]4CC[C@]3(O)C2)[C@H](O)[C@H](O)[C@H]1O,–,active: 0.0058 µM
CN1CCN(C(=O)COc2ccc(-c3nc4ccccc4s3)cc2)CC1,–,"inconclusive: 29.1 µM [falling, single point]"
Cc1cc2ccccc2n1-c1ccc(C(=O)N2CCC(C(=O)NCc3ccc(Cl)cc3)CC2)s1,–,active: 7.31 µM
NC(Cc1nc2ccccc2[nH]1)c1ccc(Cl)cc1 (stereo not given),–,"inconclusive: 23.1 µM [activator, single point]"
CCC(C)(O)C(=O)OC1C(=O)OC2CC3C(C)=CC(=O)C(O)C3(C)C3C4(O)OCC23C1C(C)C4O (stereo not given),–,active: 0.58 µM
C[C@H]1CC[C@@H]2[C@@H](C)[C@H]3C(CC4C5CC=C6CC(O[C@@H]7O[C@H](CO)C(O[C@@H]8O[C@@H](C)[C@H](O)[C@@H](O)[C@H]8O)[C@H](O)[C@H]7O[C@@H]7O[C@@H](C)[C@H](O)[C@@H](O)[C@H]7O)CC[C@]6(C)C5CC[C@@]43C)N2C1 (stereo not given in full),–,"inconclusive: 29.1 µM [falling, single point]"
CCN(CC)c1ccc(/C=C/[N+](=O)[O-])cc1,inactive: 3.7%,–
CC1CC(OP(O)(=S)c2ccc(N(C)C)cc2NC(=O)c2cccs2)CC(C)(C)C1 (stereo not given),–,"inconclusive: 13 µM [activator, partial curve, poor fit]"
CCC(C)(C)c1ccc(O)cc1,inactive: -0.243%,–
Cc1cc(N(CCCl)CCCl)ccc1C=NNC(=O)Cc1cc(=O)oc2cc(O)ccc12,–,"inconclusive: 5.17 µM [falling, full curve, poor fit]"
CN(C)C(=O)Oc1ccc2c(c1)O/C(=C\c1cccc(Cl)c1)C2=O,–,"inconclusive: 16.4 µM [activator, partial curve, poor fit]"
C[C@@H](N)Cc1cnc[nH]1,–,"inconclusive: 32.6 µM [falling, single point]"
Cc1ccc(-c2nc3ccc(Cl)cc3n2OC(=O)N(C)C)cc1,–,"inconclusive: 16.4 µM [activator, partial curve]"
O=C1NC(=S)N(c2ccccc2)C(=O)/C1=C/c1ccco1,–,"inconclusive: 11.6 µM [falling, partial curve, poor fit]"
O=C(O)CCn1cc(C=C2C(=O)NC(=S)NC2=O)c(-c2ccccc2)n1,inactive: -4.73%,–
C=CCn1c(O)c(C(C)=NCc2ccco2)c(=O)[nH]c1=O,–,"inconclusive: 5.17 µM [falling, full curve, poor fit]"
Cc1ccc(CNC2=NCCS2)cc1,–,"inconclusive: 29.1 µM [activator, single point]"
CCCCCCn1c(=O)c(C(=O)Nc2ncccc2C)c(O)c2ccccc21,–,active: 8.2 µM
CCc1ccccc1NC(=O)C1CCCN(c2ncnc3onc(C)c23)C1 (stereo not given),–,"inconclusive: 10.3 µM [falling, partial curve, poor fit]"
Nc1c(C(=O)NC2CCCC2)c2nc3ccccc3nc2n1CC1CCCO1 (stereo not given),–,"inconclusive: 18.4 µM [falling, single point]"

Structure (SMILES),"activity change, negative = inhibition",Potency
COc1ccc(CCN2CCCC(CN(C)C(=O)c3cc(C)oc3C)C2)cc1 (stereo not given),–,"inconclusive: 4.11 µM [activator, full curve]"
COC(=O)C1=C(c2ccc(F)cc2F)C[C@@H]2CC[C@H]1N2C(=O)NCCOc1ccccc1Cl,–,"inconclusive: 10.3 µM [falling, partial curve, poor fit]"
Cn1cc(P(=S)(c2ccccc2)c2ccccc2)c2ccccc21,–,"inconclusive: 0.082 µM [falling, full curve, poor fit]"
CCC(=NCc1ccco1)c1c(O)n(-c2ccc(OC)cc2)c(=O)[nH]c1=O,–,"inconclusive: 32.6 µM [falling, single point]"
CCn1cc2nc(SCc3cc(C)ccc3C)n(Cc3ccc(OC)cc3)c(=O)c2n1,–,"inconclusive: 29.1 µM [falling, single point]"
C[C@]12CCC3C(CC[C@H]4C[C@@H](O)CC[C@]34C)[C@H]1C=CC2=O (stereo not given in full),–,"inconclusive: 23.1 µM [falling, single point]"
CSc1ncc(/C=C2/C(=O)NC(=O)N(c3ccc(C(C)C)cc3)C2=O)cn1,inactive: 0.384%,–
CC(=O)O[C@@H]1/C=C/[C@](C)(O)C[C@@H](C)C/C=C/[C@H]2[C@@H]3O[C@]3(C)[C@@H](C)[C@H]3[C@H](Cc4ccccc4)NC(=O)[C@@]312,–,"inconclusive: 2.31 µM [falling, full curve]"
Cn1cccc1CN1CCN(C(=O)COc2ccccc2)CC1,inactive: -6.21%,–
O=C1NC(=O)N(c2ccccc2F)C(=O)/C1=C/c1ccc(Sc2nc3ccccc3[nH]2)o1,inactive: -0.207%,–
CC1CCN(CC(=O)c2ccc3c(c2)OCCO3)CC1,–,"inconclusive: 1.3 µM [activator, full curve]"
CCCCn1c(O)c(C(C)=NCc2ccc(F)cc2)c(=O)[nH]c1=O,–,"inconclusive: 18.4 µM [falling, single point]"
CCOC(=O)[C@]12Cc3cc(C)ccc3[C@H]1N(Cc1ccccc1)C(=O)c1ccccc12,–,active: 23.1 µM
CC1Cc2cc(S(=O)(=O)N(Cc3ccccc3)C(C)C)ccc2N1C(=O)C1CCC1 (stereo not given),–,"inconclusive: 29.1 µM [falling, single point]"
Cc1ccc(-c2cc(-c3ccc(C)cc3)[n+](C)o2)cc1,–,active: 5.17 µM
CC(C)C[C@H]1CN([C@@H](CC(C)C)CN2CCCC2CN2C(=S)NC[C@@H]2Cc2ccc(O)cc2)C(=S)N1CC1CCCCCC1 (stereo not given in full),–,"inconclusive: 20.6 µM [falling, partial curve, poor fit]"
CCOC(=O)c1ccc(N2C(=O)c3n[nH]c(-c4cccs4)c3C2c2ccc(Cl)cc2Cl)cc1 (stereo not given),–,"inconclusive: 25.9 µM [falling, single point]"
CCOC(=O)C1(c2ccccc2)CCN(CCC(=O)Nc2ccc(F)cc2)CC1,inactive: -2.11%,–
CC(=NCc1ccco1)c1c(O)n(C2CCCCC2)c(=O)[nH]c1=O,–,"inconclusive: 5.8 µM [falling, partial curve, poor fit]"
CCC1CN1P(=S)(N1CC1CC)N1CC1CC (stereo not given),inactive: -17.9%,–
CN1C(=O)C(=Cc2ccccc2Oc2ccc(Cl)cc2)C(=O)N(C)C1=O,inactive: -17.9%,–
CN(C)c1ccc(C=C2C(=O)NC(=S)NC2=O)cc1[N+](=O)[O-],inactive: -13.8%,–

# Nothing new here: two of the compounds above.
Structure (SMILES),"activity change, negative = inhibition",Potency
COc1ccc(CCN2CCCC(CN(C)C(=O)c3cc(C)oc3C)C2)cc1 (stereo not given),–,"inconclusive: 4.11 µM [activator, full curve]"
COC(=O)C1=C(c2ccc(F)cc2F)C[C@@H]2CC[C@H]1N2C(=O)NCCOc1ccccc1Cl,–,"inconclusive: 10.3 µM [falling, partial curve, poor fit]"

# (further entries)

Structure (SMILES),"activity change, negative = inhibition",Potency
COc1nc2ccccc2c(=O)n1-c1ccc(Cl)cc1,–,"inconclusive: 29.1 µM [activator, single point]"
CCCCOP(=O)(c1ccc(N(C)C)cc1)C(O)c1ccc(C(C)C)cc1 (stereo not given),–,"inconclusive: 23.1 µM [falling, partial curve, poor fit]"
CCCNC(=O)c1c(N)n(Cc2ccc3c(c2)OCO3)c2nc3ccccc3nc12,inactive: 12.2%,–
CC(C)(C)C(=O)O[C@H]1CC[C@@]2(C)C(=CC(=O)C3C2CC[C@]2(C)C(=O)[C@@H](F)CC32)C1 (stereo not given in full),–,"inconclusive: 23.1 µM [activator, partial curve, poor fit]"
CSc1ccc(C(=O)C2CCCN(Cc3cnc(SC)nc3)C2)cc1 (stereo not given),–,"inconclusive: 20.6 µM [activator, partial curve]"
Cc1ccc(CNCCc2ccccc2F)cc1,inactive: 22%,–
CCOc1cc(/C=N/NC(=O)c2cccs2)ccc1OC(=O)N1CCOCC1,–,"inconclusive: 32.6 µM [falling, single point]"
CC(=O)c1ccc(OC(=O)N2CCOCC2)cc1,–,"inconclusive: 25.9 µM [activator, partial curve, poor fit]"
O=C1C(Cl)=C(N2CCCCCC2)C(=O)N1c1ccccc1,–,"inconclusive: 1.64 µM [falling, partial curve]"
O=C(c1ccc2c(c1)OCO2)N1CCC2(CC1)OCCO2,inactive: 11.2%,–
Cc1c(P(=S)(c2ccccc2)c2ccccc2)[n+]2ccccc2n1CCc1ccccc1,–,"inconclusive: 29.1 µM [falling, single point]"
CNC(=O)c1cccn(Cc2cc(C(F)(F)F)cc(C(F)(F)F)c2)c1=O,–,active: 5.17 µM
O=C(c1ccccc1F)N1CCN(Cc2nc3sc4c(c3c(=O)[nH]2)CCCC4)CC1,–,"inconclusive: 25.9 µM [falling, single point]"
CC[C@]12CC[C@H](O)CC1=CCC1C2CC[C@]2(C)C(=O)CCC12 (stereo not given in full),–,"inconclusive: 0.206 µM [activator, full curve, poor fit]"
CCC1C(c2cc(OC)c(OC)c(OC)c2)c2cc3c(cc2OC1N1CCCC1)OCO3 (stereo not given),inactive: 1.45%,–
COc1cccc(CNCCc2ccc(F)cc2)c1,–,"inconclusive: 6.51 µM [falling, single point]"
Cc1ccc(OCC(=O)N2CCN(CCc3ccncc3)CC2)cc1,–,"inconclusive: 14.6 µM [activator, partial curve, poor fit]"
CC[C@@]1(O)C(=O)OCc2c1cc1n(c2=O)Cc2cc3c(N)cccc3nc2-1,–,active: 0.651 µM
C=CCn1c(O)c(C=Nc2c(C)n(C)n(-c3ccccc3)c2=O)c(=O)[nH]c1=O,inactive: 17.7%,–
CC1=CC(=C2C(=O)NC(=S)NC2=O)C=C(C(F)(F)F)N1Cc1ccccc1,–,"inconclusive: 20.6 µM [falling, single point]"
Cc1ccc(/C=C2\C(=O)NC(=S)N(c3ccc(F)cc3)C2=O)s1,–,"inconclusive: 5.8 µM [activator, partial curve]"

# Reference: PubChem BioAssay AID504444 (National Center for Advancing Translational Sciences (NCATS), 2011)
